Reference: article PMC3322157

Amino acid sequences for entries named in this document (tags omitted). Residues count along the entry.
UniProt Q8BMS1, residues 37-763: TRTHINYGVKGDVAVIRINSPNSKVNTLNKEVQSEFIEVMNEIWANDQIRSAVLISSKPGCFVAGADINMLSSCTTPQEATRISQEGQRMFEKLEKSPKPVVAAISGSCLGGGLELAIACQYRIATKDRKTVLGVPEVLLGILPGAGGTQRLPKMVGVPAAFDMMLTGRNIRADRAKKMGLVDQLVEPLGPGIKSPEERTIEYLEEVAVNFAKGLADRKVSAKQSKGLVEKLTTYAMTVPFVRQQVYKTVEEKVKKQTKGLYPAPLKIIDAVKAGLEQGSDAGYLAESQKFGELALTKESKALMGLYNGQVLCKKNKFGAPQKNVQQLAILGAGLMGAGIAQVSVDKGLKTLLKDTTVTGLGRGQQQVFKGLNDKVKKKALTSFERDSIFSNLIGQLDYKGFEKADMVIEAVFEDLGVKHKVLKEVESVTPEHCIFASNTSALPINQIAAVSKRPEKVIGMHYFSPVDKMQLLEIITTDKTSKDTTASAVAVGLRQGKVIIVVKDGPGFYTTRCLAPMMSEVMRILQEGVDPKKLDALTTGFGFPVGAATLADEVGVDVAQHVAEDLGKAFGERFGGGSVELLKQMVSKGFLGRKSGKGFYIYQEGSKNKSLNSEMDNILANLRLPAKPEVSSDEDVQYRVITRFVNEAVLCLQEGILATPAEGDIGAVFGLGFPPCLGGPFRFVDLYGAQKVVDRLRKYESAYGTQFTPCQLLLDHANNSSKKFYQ

T1: Histidine-tagged SCHAD (UniProt Q16836)
T1 sequence: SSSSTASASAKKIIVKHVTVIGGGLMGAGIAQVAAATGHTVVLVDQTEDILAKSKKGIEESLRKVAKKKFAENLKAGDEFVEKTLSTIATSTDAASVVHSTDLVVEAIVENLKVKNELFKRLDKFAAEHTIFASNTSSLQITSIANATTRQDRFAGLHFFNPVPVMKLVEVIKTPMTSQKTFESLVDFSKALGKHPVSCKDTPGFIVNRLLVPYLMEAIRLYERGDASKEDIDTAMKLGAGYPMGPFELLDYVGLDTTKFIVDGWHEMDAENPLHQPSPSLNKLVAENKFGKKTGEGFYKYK


Columns and labels:
Histidine-tagged SCHAD [1] = biological target: T1, Histidine-tagged SCHAD; test: condition: only liver and brain of SCHAD knockout mice; affinity purification with mass spectrometry; as a2, homogenates of tissues from SCHAD knockout mice only (liver, brain, skeletal muscle as named for each row); only the target purified
Histidine-tagged SCHAD [2] = biological target: T1, Histidine-tagged SCHAD; test: affinity purification with mass spectrometry; His-tagged SCHAD linked to agarose beads (AminoLink Plus, cyanoborohydride); homogenates of mouse liver, muscle, heart, kidney and brain (wild type and SCHAD knockout) in 50 mM Tris-HCl, 0.1% Triton-X 100, 1 mg/mL, 4°C overnight; eluted proteins identified by LC-MS/MS, BSA beads as control; only the target purified
Histidine-tagged SCHAD [3] = biological target: T1, Histidine-tagged SCHAD; test: condition: only skeletal muscle of SCHAD knockout mice; affinity purification with mass spectrometry; as a2, homogenates of tissues from SCHAD knockout mice only (liver, brain, skeletal muscle as named for each row); only the target purified
Histidine-tagged SCHAD [4] = biological target: T1, Histidine-tagged SCHAD; test: affinity purification with mass spectrometry; as a2, homogenates of tissues from SCHAD knockout mice only (liver, brain, skeletal muscle as named for each row); only the target purified

binding (Histidine-tagged SCHAD [1]) | binding (Histidine-tagged SCHAD [2]) | binding (Histidine-tagged SCHAD [3]) | Molecule | binding (Histidine-tagged SCHAD [4])
no binding | binds |  | trifunctional enzyme alpha (from UniProt Q8BMS1 37-763) | 
no binding | binds |  | very long chain acyl-CoA dehydrogenase (protein, UniProt P50544 42-656) AREATQAVLDKPETLSSDASTREKPARAESKSFAVGMFKGQLTIDQVFPYPSVLSEEQAQFLKELVGPVARFFEEVNDPAKNDALEKVEDDTLQGLKELGAFGLQVPSELGGLGLSNTQYARLAEIVGMHDLGVSVTLGAHQSIGFKGILLYGTKAQREKYLPRVASGQALAAFCLTEPSSGSDVASIRSSAIPSPCGKYYTLNGSKIWISNGGLADIFTVFAKTPIKDAATGAVKEKITAFVVERSFGGVTHGLPEKKMGIKASNTSEVYFDGVKVPSENVLGEVGDGFKVAVNILNNGRFGMAATLAGTMKSLIAKAVDHATNRTQFGDKIHNFGVIQEKLARMAILQYVTESMAYMLSANMDQGFKDFQIEAAISKIFCSEAAWKVADECIQIMGGMGFMKEPGVERVLRDIRIFRIFEGANDILRLFVALQGCMDKGKELTGLGNALKNPFGNVGLLMGEAGKQLRRRTGIGSGLSLSGIVHPELSRSGELAVQALDQFATVVEAKLVKHKKGIVNEQFLLQRLADGAIDLYAMVVVLSRASRSLSEGYPTAQHEKMLCDSWCIEAATRIRENMASLQSSPQHQELFRNFRSISKAMVENGGLVTGNPLGI | 
no binding | binds |  | trifunctional enzyme beta (protein, UniProt Q99JY0 35-475) SAPAVQTKSKKTLAKPNMKNIVVVEGVRIPFLLSGTSYKDLMPHDLARAALSGLLHRTNIPKDVVDYIIFGTVIQEVKTSNVAREAALGAGFSDKTPAHTVTMACISSNQAMTTAVGLIASGQCDVVVAGGVELMSDVPIRHSRNMRKMMLDLNKAKTLGQRLSLLSKFRLNFLSPELPAVAEFSTNETMGHSADRLAAAFAVSRMEQDEYALRSHSLAKKAQDEGHLSDIVPFKVPGKDTVTKDNGIRPSSLEQMAKLKPAFIKPYGTVTAANSSFLTDGASAMLIMSEDRALAMGYKPKAYLRDFIYVSQDPKDQLLLGPTYATPKVLEKAGLTMNDIDAFEFHEAFSGQILANFKAMDSDWFAQNYMGRKTKVGSPPLEKFNIWGGSLSLGHPFGATGCRLVMAAANRLRKDGGQYALVAACAAGGQGHAMIVEAYPK | 
 | binds |  | short-chain acyl-coA dehydrogenase (protein, UniProt Q07417 25-412) LHTVYQSVELPETHQMLRQTCRDFAEKELVPIAAQLDREHLFPTAQVKKMGELGLLAMDVPEELSGAGLDYLAYSIALEEISRACASTGVIMSVNNSLYLGPILKFGSAQQKQQWITPFTNGDKIGCFALSEPGNGSDAGAASTTAREEGDSWVLNGTKAWITNSWEASATVVFASTDRSRQNKGISAFLVPMPTPGLTLGKKEDKLGIRASSTANLIFEDCRIPKENLLGEPGMGFKIAMQTLDMGRIGIASQALGIAQASLDCAVKYAENRNAFGAPLTKLQNIQFKLADMALALESARLLTWRAAMLKDNKKPFTKESAMAKLAASEAATAISHQAIQILGGMGYVTEMPAERYYRDARITEIYEGTSEIQRLVIAGHLLRSYRS | no binding (only liver of SCHAD knockout mice)

Second part, the molecule before the results:

Molecule | binding (Histidine-tagged SCHAD [1]) | binding (Histidine-tagged SCHAD [2]) | binding (Histidine-tagged SCHAD [3]) | binding (Histidine-tagged SCHAD [4])
medium chain acylCoA dehydrogenase (protein, UniProt P45952 26-421) KAAHKQEPGLGFSFELTEQQKEFQATARKFAREEIIPVAPEYDKSGEYPFPLIKRAWELGLINAHIPESCGGLGLGTFDACLITEELAYGCTGVQTAIEANSLGQMPVILAGNDQQKKKYLGRMTEQPMMCAYCVTEPSAGSDVAAIKTKAEKKGDEYVINGQKMWITNGGKANWYFLLARSNPDPKVPASKAFTGFIVEADTPGIHIGKKELNMGQRCSDTRGIAFEDVRVPKENVLIGEGAGFKIAMGAFDRTRPTVAAGAVGLAQRALDEATKYALDRKTFGKLLVEHQGVSFLLAEMAMKVELARLSYQRAAWEVDSGRRNTYYASIAKAFAGDIANQLATDAVQIFGGYGFNTEYPVEKLMRDAKIYQIYEGTAQIQRLIIAREHIEKYKN |  | binds | no binding | 
arginase-2 (protein, UniProt O08691 23-354) VHSVAIVGAPFSRGQKKLGVEYGPAAIREAGLLKRLSRLGCHLKDFGDLSFTNVPQDDPYNNLVVYPRSVGLANQELAEVVSRAVSGGYSCVTMGGDHSLAIGTIIGHARHRPDLCVIWVDAHADINTPLTTVSGNIHGQPLSFLIKELQDKVPQLPGFSWIKPCLSPPNIVYIGLRDVEPPEHFILKNYDIQYFSMREIDRLGIQKVMEQTFDRLIGKRQRPIHLSFDIDAFDPKLAPATGTPVVGGLTYREGVYITEEIHNTGLLSALDLVEVNPHLATSEEEAKATARLAVDVIASSFGQTREGGHIVYDHLPTPSSPHESENEECVRI |  | binds |  | 
ETF ubiquinone oxidoreductase (mouse) (protein, UniProt Q921G7 33-616) SSTSAVPQITTHYTVHPREKDKRWEGVNMERFAEEADVVIVGAGPAGLSAAIRLKQLAAEQGKDIRVCLVEKAAQIGAHTLSGACLDPAAFKELFPDWKEKGAPLNTPVTEDRFAILTEKHRIPVPILPGLPMNNHGNYIVRLGHLVSWMGEQAEALGVEVYPGYAAAEVLYHEDGSVKGIATNDVGIQKDGAPKTTFERGLELHAKVTVFAEGCHGHLAKQLYKKFDLRASCDAQTYGIGLKELWIIDEKKWKPGRVDHTVGWPLDRHTYGGSFLYHLNEGEPLVAVGFVVGLDYQNPYLSPFREFQRWKHHPSIQPTLEGGKRIAYGARALNEGGLQSIPKLTFPGGLLIGCSPGFMNVPKIKGTHTAMKSGSLAAESIFKQLTSENLQSKTTGLHVTEYEDNLKQSWVWKELHAVRNIRPSCHGILGVYGGMIYTGIFYWILRGMEPWTLKHKGSDSDQLKPAKDCTPIEYPKPDGQISFDLLSSVALSGTNHEHDQPAHLTLKDDSIPVNRNLSIYDGPEQRFCPAGVYEFVPLEQGDGFRLQINAQNCVHCKTCDIKDPSQNINWVVPEGGGGPAYNGM |  | binds |  | 

Results are given in words; binding and its absence hold for the method and conditions named. In cells and extracts the contact can be indirect. These calls come from enrichment with a bait or labelling near it, and not all partners need be listed. For part of these data: No binding means not detected with the bait. Tags and fused reporters may be left off the sequences shown.
